Test results taken from patent US6458783B1, “Non-imidazole benzodiazepine inhibitors of farnesyl protein transferase” (Bristol-Myers Squibb Company, priority 1997, dated 2002).
Where a name gives a salt, the structure may show the parent alone. Read-outs that look alike come from different tables or passages of the source. Some results were stated once for a whole list of compounds, not compound by compound.

Molecular target: farnesyl transferase (Homo sapiens, UniProt P49354+P49356)
Test: Farnesyl transferase assays
Format: biochemical
Details: assay as described in V. Manne et al., Drug Development Research, 34, 121-137 (1995)
[1] = read-out: IC 50 values, farnesyl transferase inhibition (lower limit of stated range)
[2] = read-out: IC 50 values, farnesyl transferase inhibition (upper limit of stated range)

IC50 [1] [µM]	IC50 [2] [µM]	Compound
≥ 0.0001	≤ 100	O=C(Cc1cccnc1)N1CCN(S(=O)(=O)c2cccc3ccccc23)Cc2ccccc21 [Example 3, 2,3,4,5-Tetrahydro-4-(1-naphthalenylsulfonyl)-N-(3-pyridinyl)-1-1,4-benzodiazepine-1-carboxamide]
≥ 0.0001	≤ 100	CN(C)CCS(=O)(=O)N1Cc2cc(Br)ccc2N(C(=O)CS(N)(=O)=O)C[C@H]1Cc1ccccc1 [Example 5, (R)-7-Bromo-4-[[2-(dimethylamino)ethyl]sulfonyl]-2,3,4,5-tetrahydro-b-oxo-3-(phenylmethyl)-1H-1,4-benzodiaze-pine-1-ethanesulfonamide]
≥ 0.0001	≤ 100	O=C(c1cccc2ccccc12)N1CCN(CCCNc2ccccn2)c2ccc(-c3ccccc3)cc2C1 [Example 12, 2,3,4,5-Tetrahydro-4-(1-naphthalenylcarbonyl)-7-phenyl-1-[3-(2-pyridinylamino)propyl]-1H-1,4-benzodiazepine, Dihydrochloride]
≥ 0.0001	≤ 100	O=C(c1cccc2ccccc12)N1CCN(CCCNc2cccnc2)c2ccc(-c3ccccc3)cc2C1 [Example 13, 2,3,4,5-Tetrahydro-4-(1-naphthalenylcarbonyl)-7-phenyl-1-[3-(3-pyridinylamino)propyl]-1-1,4-benzodiazepine, Dihydrochloride]
≥ 0.0001	≤ 100	CS(=O)(=O)N1Cc2cc(Br)ccc2N(C(=O)CN2CCCC2=O)C[C@H]1Cc1ccccc1 [Example 4, (R)-7-Bromo-2,3,4,5-tetrahydro-4-(methylsulfonyl)-1-[(2-oxo-1-pyrrolidinyl)acetyl]-3-(phenylmethyl)-1H-1,4-benzodiazepine, Trifluoroacetate]
≥ 0.0001	≤ 100	O=C(c1cccc2ccccc12)N1CCN(CCn2cccc(O)c2=O)c2ccc(-c3ccccc3)cc2C1 [Example 10, 2,3,4,5-Tetrahydro-1-[2-(3-hydroxy-2-oxo-1(2H)-pyridinyl)ethyl]-4-(1-naphthalenylcarbonyl)-7-phenyl-1H-1,4-benzodiazepine, Dihydrochloride]
≥ 0.0001	≤ 100	CS(=O)(=O)N1Cc2cc(Br)ccc2N(Cc2ccc[n+]([O-])c2)C[C@H]1Cc1ccccc1 [Example 17, (R)-7-Bromo-2,3,4,5-tetrahydro-4-(methylsulfonyl)-1-(1-oxo-3-pyridinylmethyl)-3-(phenylmethyl)-1H-1,4-benzodiazepine, Hydrochloride]
≥ 0.0001	≤ 100	CS(=O)(=O)N1Cc2cc(Br)ccc2N(Cc2cccnc2)C[C@H]1Cc1ccccc1 [Example 16, (R)-7-Bromo-2,3,4,5-tetrahydro-4-(methylsulfonyl)-1-(3-pyridinylmethyl)-3-(phenylmethyl)-1H-1,4-benzodiazepine, Hydrochloride]
≥ 0.0001	≤ 100	O=C(c1cccc2ccccc12)N1CCN(Cc2cccnc2)c2ccc(-c3ccccc3)cc2C1 [Example 7, 2,3,4,5,-Tetrahydro-4-(1-naphthalenylcarbonyl)-7-phenyl-1-(3-pyridinylmethyl)-1H-1,4-benzodiazepine, hydrochloride]
≥ 0.0001	≤ 100	O=C(c1cccc2ccccc12)N1CCN(CCCNc2ncccn2)c2ccc(-c3ccccc3)cc2C1 [Example 15, 2,3,4,5-Tetrahydro-4-(1-naphthalenylcarbonyl)-7-phenyl-1-[3-(2-pyrimidinylamino)propyl]-1H-1,4-benzodiazepine, Dihydrochloride]
≥ 0.0001	≤ 100	O=C(c1cccc2ccccc12)N1CCN(Cc2cccs2)c2ccccc2C1 [Example 6, 2,3,4,5-Tetrahydro-4-(1-naphthalenylcarbonyl)-1-(2-thienylmethyl)-1H-1,4-benzodiazepine]
≥ 0.0001	≤ 100	O=C(c1cccc2ccccc12)N1CCN(Cc2ccsc2)c2ccccc2C1 [Example 8, 2,3,4,5-Tetrahydro-4-(1-naphthalenylcarbonyl)-1-(3-thienylmethyl)-1H-1,4-benzodiazepine]
≥ 0.0001	≤ 100	NC(CS)CN1CCN(C(=O)c2cccc3ccccc23)Cc2ccccc21 (racemic) [Example 1, (+,−)-1-(2-Amino-3-mercaptopropyl)-2,3,4,5-tetrahydro-4-(naphthalenylcarbonyl)-1H-1,4-benzodiazepine, Monohydrochloride]
≥ 0.0001	≤ 100	O=C(c1cccc2ccccc12)N1CCN(CCn2cccc(O)c2=O)c2ccccc2C1 [Example 9, 2,3,4,5-Tetrahydro-1-[2-(3-hydroxy-2-oxo-1(2H)-pyridinyl)ethyl]4-(1-naphthalenylcarbonyl)-1H-1,4-benzodiazepine, Dihydrochloride]
≥ 0.0001	≤ 100	O=C(c1cccc2ccccc12)N1CCN(CCCNc2cc[nH]n2)c2ccc(-c3ccccc3)cc2C1 [Example 14, 2,3,4,5-Tetrahydro-4-(1-naphthalenylcarbonyl)-7-phenyl-1-[3-(1H-pyrazol-3-ylamino)propyl]-1H-1,4-benzodiazepine, Dihydrochloride]
≥ 0.0001	≤ 100	NC(CS)CN1CCN(C(=O)c2cccc3ccccc23)Cc2cc(-c3ccccc3)ccc21 (racemic) [Example 2, (+,−)-1-(2-Amino-3-mercaptopropyl)-2,3,4,5-tetrahydro-4-(naphthalenylcarbonyl)-7-phenyl-1H-1,4-benzodiazepine, Monohydrochloride]
≥ 0.0001	≤ 100	O=C1CCC(C(=O)N2CCN(C(=O)c3cccc4ccccc34)Cc3cc(-c4ccccc4)ccc32)N1 (stereo not shown) [Example 11, 2,3,4,5-Tetrahydro-4-(1-naphthalenylcarbonyl)-1-[(5-oxo-2-pyrrolidinyl)carbonyl]-7-phenyl-1H-1,4-benzodiazepine]
